Source: PubChem BioAssay AID1259405 (NCATS, 2018)

Aim: 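Mouse-designed siRNAs used to find CHO productivity engineering targets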 (primary screen)
Cell system: Chinese hamster CHO-K1 ovary cells with stable secreted eGFP expression
Reagent: single siRNA against mouse genes, 0.8 pmol siRNA per well (2 µl of 400 nM stock)
Timing: 3 days
Detection: 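Percent of the per-plate non-targeting control median for intracellular GFP per well by laser scanning cytometry and for cell viability by ATP luminescence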
Direction: GFP, % of control: higher = more GFP per well, higher productivity; viability (ATP), % of control: higher = more viable cells (more ATP)
Hit rule: 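a knock-down is called active if GFP reaches 120% or more of non-targeting control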
In all, the deposit lists about 50,000 reagents; shown is a part drawn at random. Of all reagents, about 4,000 (8%) got an active call. 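Mouse siRNA library applied to hamster cells; one well for each siRNA.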 The numbers tell different reagents against one gene apart.

{"gene": "Epas1 (endothelial PAS domain protein 1)", "reagent no.": 1, "GFP, % of control": 77.9, "viability (ATP), % of control": 76.3, "Outcome": "inactive"}
{"gene": "Epas1 (endothelial PAS domain protein 1)", "reagent no.": 2, "GFP, % of control": 99.9, "viability (ATP), % of control": 116, "Outcome": "inactive"}
{"gene": "Cryzl1 (crystallin zeta like 1)", "reagent no.": 1, "GFP, % of control": 77.3, "viability (ATP), % of control": 89.4, "Outcome": "inactive"}
{"gene": "Cryzl1 (crystallin zeta like 1)", "reagent no.": 2, "GFP, % of control": 85.5, "viability (ATP), % of control": 76.4, "Outcome": "inactive"}
{"gene": "Cryzl1 (crystallin zeta like 1)", "reagent no.": 3, "GFP, % of control": 42.3, "viability (ATP), % of control": 53.5, "Outcome": "inactive"}
{"gene": "Mrps28 (mitochondrial ribosomal protein S28)", "reagent no.": 1, "GFP, % of control": 74.4, "viability (ATP), % of control": 56.3, "Outcome": "inactive"}
{"gene": "Mrps28 (mitochondrial ribosomal protein S28)", "reagent no.": 2, "GFP, % of control": 97.6, "viability (ATP), % of control": 89.2, "Outcome": "inactive"}
{"gene": "Mrps28 (mitochondrial ribosomal protein S28)", "reagent no.": 3, "GFP, % of control": 58, "viability (ATP), % of control": 53.5, "Outcome": "inactive"}
{"gene": "Hepacam (hepatocyte cell adhesion molecule)", "reagent no.": 1, "GFP, % of control": 50.7, "viability (ATP), % of control": 62, "Outcome": "inactive"}
{"gene": "Hepacam (hepatocyte cell adhesion molecule)", "reagent no.": 2, "GFP, % of control": 65, "viability (ATP), % of control": 66.7, "Outcome": "inactive"}
{"gene": "Hepacam (hepatocyte cell adhesion molecule)", "reagent no.": 3, "GFP, % of control": 76.9, "viability (ATP), % of control": 91.4, "Outcome": "inactive"}
{"gene": "Rag1 (recombination activating 1)", "reagent no.": 1, "GFP, % of control": 154, "viability (ATP), % of control": 105, "Outcome": "active"}
{"gene": "Rag1 (recombination activating 1)", "reagent no.": 2, "GFP, % of control": 95.9, "viability (ATP), % of control": 77, "Outcome": "inactive"}
{"gene": "Rag1 (recombination activating 1)", "reagent no.": 3, "GFP, % of control": 58.9, "viability (ATP), % of control": 72.5, "Outcome": "inactive"}
{"gene": "Spem2 (SPEM family member 2)", "reagent no.": 1, "GFP, % of control": 94.1, "viability (ATP), % of control": 86.5, "Outcome": "inactive"}
{"gene": "Spem2 (SPEM family member 2)", "reagent no.": 2, "GFP, % of control": 96.6, "viability (ATP), % of control": 93.3, "Outcome": "inactive"}
{"gene": "Spem2 (SPEM family member 2)", "reagent no.": 3, "GFP, % of control": 87.4, "viability (ATP), % of control": 102, "Outcome": "inactive"}
{"gene": "Gprc5c (G protein-coupled receptor, family C, group 5, member C)", "reagent no.": 1, "GFP, % of control": 107, "viability (ATP), % of control": 111, "Outcome": "inactive"}
{"gene": "Gprc5c (G protein-coupled receptor, family C, group 5, member C)", "reagent no.": 2, "GFP, % of control": 75.1, "viability (ATP), % of control": 68, "Outcome": "inactive"}
{"gene": "Gprc5c (G protein-coupled receptor, family C, group 5, member C)", "reagent no.": 3, "GFP, % of control": 69.6, "viability (ATP), % of control": 71.3, "Outcome": "inactive"}
{"gene": "Semg1 (semenogelin 1)", "reagent no.": 1, "GFP, % of control": 81.3, "viability (ATP), % of control": 67.9, "Outcome": "inactive"}
{"gene": "Semg1 (semenogelin 1)", "reagent no.": 2, "GFP, % of control": 76, "viability (ATP), % of control": 90, "Outcome": "inactive"}
{"gene": "Semg1 (semenogelin 1)", "reagent no.": 3, "GFP, % of control": 82.4, "viability (ATP), % of control": 124, "Outcome": "inactive"}
{"gene": "Gmeb2 (glucocorticoid modulatory element binding protein 2)", "reagent no.": 1, "GFP, % of control": 79.8, "viability (ATP), % of control": 78.9, "Outcome": "inactive"}
{"gene": "Gmeb2 (glucocorticoid modulatory element binding protein 2)", "reagent no.": 2, "GFP, % of control": 95.7, "viability (ATP), % of control": 82.3, "Outcome": "inactive"}
{"gene": "Gmeb2 (glucocorticoid modulatory element binding protein 2)", "reagent no.": 3, "GFP, % of control": 50.6, "viability (ATP), % of control": 26.3, "Outcome": "inactive"}
{"gene": "Slc5a2", "reagent no.": 1, "GFP, % of control": 150, "viability (ATP), % of control": 78.5, "Outcome": "active"}
{"gene": "Slc5a2", "reagent no.": 2, "GFP, % of control": 105, "viability (ATP), % of control": 91.1, "Outcome": "inactive"}
{"gene": "Slc5a2", "reagent no.": 3, "GFP, % of control": 50.6, "viability (ATP), % of control": 43.9, "Outcome": "inactive"}
{"gene": "Zfp235 (zinc finger protein 235)", "reagent no.": 1, "GFP, % of control": 112, "viability (ATP), % of control": 122, "Outcome": "inactive"}
{"gene": "Zfp235 (zinc finger protein 235)", "reagent no.": 2, "GFP, % of control": 71.5, "viability (ATP), % of control": 45.5, "Outcome": "inactive"}
{"gene": "Zfp235 (zinc finger protein 235)", "reagent no.": 3, "GFP, % of control": 48.1, "viability (ATP), % of control": 90, "Outcome": "inactive"}
{"gene": "Arpin (actin-related protein 2/3 complex inhibitor)", "reagent no.": 1, "GFP, % of control": 63, "viability (ATP), % of control": 93.1, "Outcome": "inactive"}
{"gene": "Arpin (actin-related protein 2/3 complex inhibitor)", "reagent no.": 2, "GFP, % of control": 170, "viability (ATP), % of control": 125, "Outcome": "active"}
{"gene": "Arpin (actin-related protein 2/3 complex inhibitor)", "reagent no.": 3, "GFP, % of control": 83.1, "viability (ATP), % of control": 78.2, "Outcome": "inactive"}
{"gene": "Mlec (malectin)", "reagent no.": 1, "GFP, % of control": 103, "viability (ATP), % of control": 71.3, "Outcome": "inactive"}
{"gene": "Mlec (malectin)", "reagent no.": 2, "GFP, % of control": 53.6, "viability (ATP), % of control": 50.4, "Outcome": "inactive"}
{"gene": "Mlec (malectin)", "reagent no.": 3, "GFP, % of control": 49.9, "viability (ATP), % of control": 68.6, "Outcome": "inactive"}
{"gene": "Abhd11 (abhydrolase domain containing 11)", "reagent no.": 1, "GFP, % of control": 125, "viability (ATP), % of control": 87.3, "Outcome": "active"}
{"gene": "Abhd11 (abhydrolase domain containing 11)", "reagent no.": 2, "GFP, % of control": 60, "viability (ATP), % of control": 70.4, "Outcome": "inactive"}
{"gene": "Abhd11 (abhydrolase domain containing 11)", "reagent no.": 3, "GFP, % of control": 79.2, "viability (ATP), % of control": 72.6, "Outcome": "inactive"}

Ordered by “viability (ATP), % of control” (low to high): 4 of the entries above.
{"gene": "Semg1 (semenogelin 1)", "reagent no.": 1, "GFP, % of control": 81.3, "viability (ATP), % of control": 67.9, "Outcome": "inactive"}
{"gene": "Gmeb2 (glucocorticoid modulatory element binding protein 2)", "reagent no.": 1, "GFP, % of control": 79.8, "viability (ATP), % of control": 78.9, "Outcome": "inactive"}
{"gene": "Semg1 (semenogelin 1)", "reagent no.": 2, "GFP, % of control": 76, "viability (ATP), % of control": 90, "Outcome": "inactive"}
{"gene": "Semg1 (semenogelin 1)", "reagent no.": 3, "GFP, % of control": 82.4, "viability (ATP), % of control": 124, "Outcome": "inactive"}
